# Laboratory results taken from PubChem BioAssay AID1347423 (Functional Genomics Laboratory (NCATS/FGL), 2020).
# Hit rate of the full screen: of about 52,000 sequences, about 210 (0.4%) were called active.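 The calls were made as follows: active = gene whose silencing raises cell survival under the drug, median off-target-corrected z-score across its silencing RNAs 2 or more; inactive = the rest.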 The list shows a part of the results.
# Assay: Resistance to Poly (ADP-Ribose) Polymerase inhibitor: Gene Identification via Genome-wide siRNA Screen
# Conditions: mouse BRCA2 R2336H ES cells, olaparib, CellTiter-Glo viability; active compounds read high
# Outline: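 Genome-wide siRNA screen (3 siRNAs/gene, 20 nM) in mouse ES cells carrying hypomorphic BRCA2 R2336H; olaparib 500 nM added 48 h post-transfection, CellTiter-Glo viability 72 h later. Normalized to plate-median negative control; MAD z-scores, gene median, seed-adjusted.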
row,Sequence,z-score
1,GGGAUAGGAUUGCAUCAGUTT against Olfr356,inactive: -0.532
2,GGGCAUCAAAUUAAGAUCATT against D830007F02Rik,inactive: 1.16
3,GUGUGCCACAUACUGGUCCTT against Olfr806,inactive: 0.479
4,GGGUUAUCAACAAAAAUGATT against Agtr1b,inactive: -1.09
5,GGAGUCCUGUUCUUCUUUATT against Trpv4,inactive: -0.684
6,GGAAAAUGUUUGGUGUAAUTT against Zfp85-rs1,inactive: 0.943
7,GGAAUGGGAUUACACCUACTT against 1110002H13Rik,inactive: -0.223
8,CCUUCUCUAGCUAUGGCUATT against Gabrg3,inactive: -0.341
9,GGGUUUUGACUUUCGUUUUTT against Etnk2,inactive: 1.22
10,GCUUGGCCGUGAUUGUUGCTT against B930041F14Rik,inactive: 0.0533
11,GGAAUAUUCACAGUCCGAGTT against Tex27,inactive: 0.0149
12,GGAGGAUCAUGGUUGGGAUTT against Zfp192,inactive: -0.117
13,GAGUGUUUCAGAUUCUUCATT against Klra8,inactive: 0.37
14,GCUCAGAUAAUGGCCUACATT against Smarca4,inactive: -1.27
15,GGACUUCUCCAUCCUGCUUTT against Alg1,inactive: 0.382
16,CCUUUAAAGGGCAUAUUCATT against Rsn,inactive: 0.914
17,GGAAAAACUACUCAAGGAGTT against B130050I23Rik,inactive: -0.909
18,GGUGUUGGGCUACAAGGAUTT against Epb4.9,inactive: 0.944
19,GCUCCGGAACAGAUAAAACTT against Csrp2bp,inactive: 0.355
20,GGACAAUUUUUCUUCUCCATT against Tsnax,inactive: 1.26
21,GCCCUUACAUAAUAGCUUGTT against Tacr2,inactive: 0.0384
22,GGAGCAGGUGUUGAAAGACTT against Gtf2a1lf,inactive: 0.0481
23,CCCAGCAGAAUAACUGCCATT against 2610017I09Rik,inactive: -0.905

row,Sequence,z-score
1,GGAAGAAGACGGACUUCGGTT against Vapb,inactive: 0.553
2,CCCACCAGAUUUCUACACCTT against 2210413P10Rik,inactive: 1.05
3,GCCAACAUGAGCUCAACAATT against Fkhl18,inactive: -0.75
4,GGCUAGUGUCAGAAAACCCTT against Tfrc,inactive: 1.27
5,GGAACUGCUGUGGAGAAAGTT against LOC229512,inactive: -1.24
6,GGAAGAGUCAACAUAAUAGTT against Galk2,inactive: -1.16
7,GGCUAUGUGAAUGAAGGGATT against Fbxl14,inactive: -0.24
8,GGUUUGUGCGGACUUGAUCTT against Rps20,inactive: -3.23
9,GCUGCUAUAUCUGAAAACATT against BC052883,inactive: 0.519
10,UAGACACUAACCAGCUGGATT against Olfr1307,inactive: -2.34
11,CCUGGUACAAUCAAACUGCTT against 9930039A11Rik,inactive: 1.54
12,GGUGCUCAAUAAACACAUGTT against Zfp98,inactive: 3.42
13,GGUUUUGUGAGCAACCUGCTT against Abcb6,inactive: -0.496
14,CGAUGCAUUUUAAAGAUGUTT against Pde8b,inactive: -0.432
15,GCCCGUCGGAUAUAAGAUUTT against Cd3z,inactive: -0.659
16,GGUGACAAACUGAUUUUAATT against Mov10l1,inactive: 0.808
17,CGGACUGAUAACUUGGGAATT against Mtpn,inactive: -0.925
18,GGGCCUAUAUAACAUCUUGTT against Usp11,active: 0.581
19,GGAAAUGAAGCCAAAAUAATT against Rab33b,inactive: 0.455
20,CCAGAACUCUCGACACCCUTT against Tlx1,inactive: 0.178
21,GCAAAUUGACCAGUCUUUUTT against D230025D16Rik,inactive: 2.45
22,CGCACAGACUUGCUUGGACTT against 4933401K09Rik,inactive: -0.746
23,GGCCUACCUUACCCUAAGATT against Adam32,inactive: -0.43

row,Sequence,z-score
1,GGAGAGCAUUCCUUGGAUUTT against Lgr8,inactive: -0.756
2,GCAGCAGUAAUGAUGGAUCTT against Ncoa3,inactive: 0.728
3,GGAUCGAGCCAAGAGCUGUTT against Rohn,inactive: -0.0164
4,GCGAAGCUAGGUUUACUGUTT against Gpr132,inactive: 1.89
5,CCUGUUGUAUUGUUUAGCGTT against Eif2c2,inactive: 0.0353
6,GGCUCUCAAACCCAUGUACTT against Foxf2,inactive: -1.86
7,GCUGAUCACAAACGAUUACTT against Arl9,inactive: -0.86
8,CCCAAGAGAAAACGGUGCCTT against Fscn1,inactive: -0.0244
9,GGACAAUAUGAGUUUUCUGTT against Glb1,inactive: 0.763
10,CGAUAAAGUCGAAAUCUACTT against Stat2,inactive: 0.532
11,GGAGCGGAGAGAAAGCAUCTT against Mpo,inactive: 1.66
12,GGGUGCUCUGAAGAAGCAATT against Olfr488,inactive: -0.834
13,CCAAAAUAAGUGUGGUCAATT against Gm691,inactive: 1.93
14,GGUAUCCAUGUUAUGCUGUTT against MGC25972,inactive: -0.28
15,GCUCAGAAGUCCAAGAUACTT against Casp12,inactive: 2.35
16,GGACCUAGUGCGUUCCAAATT against 1700026P10Rik,inactive: -1.94
17,CCUUCAAUCUUUCUUUCUGTT against Olfr1465,inactive: -0.713
18,CAAUAAUGAACAGUAGAGUTT against Olfr798,inactive: 0.651
19,CCAUGAAGACAGGACACUUTT against 4930451E10Rik,inactive: 0.279
20,GGCAACUCCGUAUUAUAACTT against Pcdhb10,inactive: 1.48
21,CGAGUACCAUCUUUAUCCATT against Hlcs,inactive: 1.39

# An excerpt of these results, with bars between the fields:
row | Sequence | z-score
3 | GGAUCGAGCCAAGAGCUGUTT against Rohn | inactive: -0.0164
4 | GCGAAGCUAGGUUUACUGUTT against Gpr132 | inactive: 1.89
5 | CCUGUUGUAUUGUUUAGCGTT against Eif2c2 | inactive: 0.0353
6 | GGCUCUCAAACCCAUGUACTT against Foxf2 | inactive: -1.86
7 | GCUGAUCACAAACGAUUACTT against Arl9 | inactive: -0.86
8 | CCCAAGAGAAAACGGUGCCTT against Fscn1 | inactive: -0.0244
9 | GGACAAUAUGAGUUUUCUGTT against Glb1 | inactive: 0.763
10 | CGAUAAAGUCGAAAUCUACTT against Stat2 | inactive: 0.532
11 | GGAGCGGAGAGAAAGCAUCTT against Mpo | inactive: 1.66
12 | GGGUGCUCUGAAGAAGCAATT against Olfr488 | inactive: -0.834
13 | CCAAAAUAAGUGUGGUCAATT against Gm691 | inactive: 1.93
14 | GGUAUCCAUGUUAUGCUGUTT against MGC25972 | inactive: -0.28
15 | GCUCAGAAGUCCAAGAUACTT against Casp12 | inactive: 2.35
16 | GGACCUAGUGCGUUCCAAATT against 1700026P10Rik | inactive: -1.94
17 | CCUUCAAUCUUUCUUUCUGTT against Olfr1465 | inactive: -0.713
18 | CAAUAAUGAACAGUAGAGUTT against Olfr798 | inactive: 0.651
